Assay results published in PMC9629621.
These are yes or no findings as the source states them, for the method shown. Binding seen in cells or lysates may run through a third protein. Some entries that bind do so weakly or less than the wild type. For some assays here: Tags and fused reporters may be left off the sequences shown. Each block holds one binder with its values, some of them ahead of it.

Protein sequences, listed by entry. Tags and fused reporters are not part of them.
UniProt P47079: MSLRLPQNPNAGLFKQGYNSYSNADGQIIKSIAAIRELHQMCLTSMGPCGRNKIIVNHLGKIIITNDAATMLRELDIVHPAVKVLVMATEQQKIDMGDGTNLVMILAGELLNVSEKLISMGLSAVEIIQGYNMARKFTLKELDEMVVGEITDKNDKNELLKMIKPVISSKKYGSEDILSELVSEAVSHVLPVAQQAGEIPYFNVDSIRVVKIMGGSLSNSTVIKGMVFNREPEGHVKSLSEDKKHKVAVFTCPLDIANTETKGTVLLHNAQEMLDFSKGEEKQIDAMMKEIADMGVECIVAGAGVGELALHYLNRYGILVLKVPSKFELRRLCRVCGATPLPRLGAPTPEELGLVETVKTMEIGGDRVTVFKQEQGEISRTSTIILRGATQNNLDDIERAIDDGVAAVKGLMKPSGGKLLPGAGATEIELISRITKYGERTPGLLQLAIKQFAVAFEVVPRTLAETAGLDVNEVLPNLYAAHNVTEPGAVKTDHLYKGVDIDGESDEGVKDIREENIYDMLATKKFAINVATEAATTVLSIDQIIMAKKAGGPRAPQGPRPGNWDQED
UniProt P10591: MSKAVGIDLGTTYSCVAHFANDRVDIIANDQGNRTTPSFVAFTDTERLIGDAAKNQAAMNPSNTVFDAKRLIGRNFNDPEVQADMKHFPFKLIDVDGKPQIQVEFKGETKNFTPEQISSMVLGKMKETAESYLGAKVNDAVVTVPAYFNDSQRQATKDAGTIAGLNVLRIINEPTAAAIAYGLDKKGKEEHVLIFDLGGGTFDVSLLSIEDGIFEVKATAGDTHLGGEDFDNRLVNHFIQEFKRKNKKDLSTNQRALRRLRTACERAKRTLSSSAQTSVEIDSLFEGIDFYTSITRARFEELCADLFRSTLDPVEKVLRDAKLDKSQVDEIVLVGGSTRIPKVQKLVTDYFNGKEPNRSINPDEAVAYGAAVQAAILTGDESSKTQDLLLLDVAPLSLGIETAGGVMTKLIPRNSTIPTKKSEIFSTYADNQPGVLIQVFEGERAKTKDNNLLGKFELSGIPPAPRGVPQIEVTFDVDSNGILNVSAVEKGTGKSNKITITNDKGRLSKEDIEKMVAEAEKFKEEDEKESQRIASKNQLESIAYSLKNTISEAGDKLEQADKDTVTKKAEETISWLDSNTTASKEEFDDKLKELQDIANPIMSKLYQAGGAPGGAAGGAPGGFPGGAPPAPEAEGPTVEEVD
UniProt P32480: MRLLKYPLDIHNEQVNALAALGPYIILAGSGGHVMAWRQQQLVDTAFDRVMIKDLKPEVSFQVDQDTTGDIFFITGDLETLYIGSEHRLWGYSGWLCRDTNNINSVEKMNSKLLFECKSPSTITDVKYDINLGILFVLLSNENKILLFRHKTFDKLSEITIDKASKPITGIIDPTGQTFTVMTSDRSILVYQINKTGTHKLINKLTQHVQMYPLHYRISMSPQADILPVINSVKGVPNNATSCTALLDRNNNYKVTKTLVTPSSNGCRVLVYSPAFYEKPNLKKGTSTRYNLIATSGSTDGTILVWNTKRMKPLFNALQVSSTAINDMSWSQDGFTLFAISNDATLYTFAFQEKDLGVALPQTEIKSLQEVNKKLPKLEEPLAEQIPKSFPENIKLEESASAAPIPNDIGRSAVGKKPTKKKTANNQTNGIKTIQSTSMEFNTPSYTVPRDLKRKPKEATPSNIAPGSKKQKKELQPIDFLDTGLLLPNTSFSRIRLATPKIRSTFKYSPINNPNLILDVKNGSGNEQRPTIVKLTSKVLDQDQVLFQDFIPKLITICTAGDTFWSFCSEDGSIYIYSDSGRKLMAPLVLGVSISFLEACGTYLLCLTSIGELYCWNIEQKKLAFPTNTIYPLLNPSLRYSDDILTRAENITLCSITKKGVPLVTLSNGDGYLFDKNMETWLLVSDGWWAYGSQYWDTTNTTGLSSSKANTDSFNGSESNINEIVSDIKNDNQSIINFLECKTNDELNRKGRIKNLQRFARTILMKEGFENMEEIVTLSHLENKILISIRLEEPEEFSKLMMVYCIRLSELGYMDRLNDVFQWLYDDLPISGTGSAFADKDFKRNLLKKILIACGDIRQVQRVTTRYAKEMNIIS

Columns and labels:
[1] = biological target: T1, Mtw1-FLAG (S. cerevisiae) (UniProt P39731); assay: co-IP; yeast extract (200 ug) on anti-Flag M2 magnetic beads, 4°C overnight; 50 mM Na-phosphate pH 8.0, 300 mM NaCl, 0.01% Tween-20; eluted with 3x FLAG peptide; western blot
T1 sequence: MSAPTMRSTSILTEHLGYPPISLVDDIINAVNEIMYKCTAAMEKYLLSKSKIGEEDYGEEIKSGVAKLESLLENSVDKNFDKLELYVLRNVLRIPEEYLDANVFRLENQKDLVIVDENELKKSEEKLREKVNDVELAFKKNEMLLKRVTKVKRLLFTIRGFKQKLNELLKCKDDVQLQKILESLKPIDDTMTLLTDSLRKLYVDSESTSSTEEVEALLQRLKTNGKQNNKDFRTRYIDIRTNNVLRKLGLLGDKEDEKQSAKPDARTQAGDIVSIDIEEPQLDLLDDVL

[2] = biological target: T2, Pcl7 with an HA epitope tag at the carboxy terminus (S. cerevisiae) (UniProt P40186); assay: co-IP; yeast extract (200 ug) on anti-HA magnetic beads, 4°C, 30 min; 50 mM Na-phosphate pH 8.0, 300 mM NaCl, 0.01% Tween-20; western blot
T2 sequence: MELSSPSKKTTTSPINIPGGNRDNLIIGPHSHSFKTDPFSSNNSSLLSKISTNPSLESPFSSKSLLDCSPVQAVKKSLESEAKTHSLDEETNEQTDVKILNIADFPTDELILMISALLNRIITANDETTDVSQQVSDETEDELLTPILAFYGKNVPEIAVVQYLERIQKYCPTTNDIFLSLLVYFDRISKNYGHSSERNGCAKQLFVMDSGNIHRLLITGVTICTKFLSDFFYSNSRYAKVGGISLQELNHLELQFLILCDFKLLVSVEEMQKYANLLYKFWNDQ

[3] = biological target: T3, Ura8 with an HA epitope tag at the carboxy terminus (S. cerevisiae) (UniProt P38627); assay: as above
T3 sequence: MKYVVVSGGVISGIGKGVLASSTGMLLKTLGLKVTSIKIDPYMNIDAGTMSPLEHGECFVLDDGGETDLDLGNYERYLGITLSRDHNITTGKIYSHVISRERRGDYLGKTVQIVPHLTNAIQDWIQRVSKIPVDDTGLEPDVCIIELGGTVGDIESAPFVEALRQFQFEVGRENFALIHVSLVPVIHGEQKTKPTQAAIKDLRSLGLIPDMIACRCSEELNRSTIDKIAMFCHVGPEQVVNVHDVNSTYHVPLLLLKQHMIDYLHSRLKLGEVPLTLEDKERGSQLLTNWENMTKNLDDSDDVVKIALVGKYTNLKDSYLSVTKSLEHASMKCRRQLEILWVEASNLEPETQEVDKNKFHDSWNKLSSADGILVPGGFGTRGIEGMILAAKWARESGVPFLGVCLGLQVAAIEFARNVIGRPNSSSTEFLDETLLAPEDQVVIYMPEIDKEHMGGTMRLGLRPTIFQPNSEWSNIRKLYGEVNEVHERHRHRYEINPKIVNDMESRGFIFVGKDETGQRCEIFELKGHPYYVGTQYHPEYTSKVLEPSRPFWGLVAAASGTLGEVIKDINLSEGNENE

[4] = biological target: Cct8 with an HA epitope tag at the carboxy terminus (S. cerevisiae) (UniProt P47079); assay: as above
[5] = biological target: HIS-tagged Ssa1 (yeast Hsp70) (S. cerevisiae) (UniProt P10591); assay: cross-linking; XL-MS: about 150 ug of His-Ssa1 complex purified from yeast (His-Trap), cross-linked with 5 mM DSSO, room temperature, 1 h; trypsin digest, LC-MS with MS2/MS3; filtered for cross-linked peptides with at least one Ssa1 peptide
[6] = biological target: Hir2 (immunoprecipitated from yeast) (S. cerevisiae) (UniProt P32480); assay: co-IP; Co-IP of Hir1 and Hir2 from yeast followed by immunoblotting for chaperones (Fig 4C); beads and tag not told for this panel

B1: Sse1 (endogenous) (protein, UniProt P32589 1-693)
chain: MSTPFGLDLGNNNSVLAVARNRGIDIVVNEVSNRSTPSVVGFGPKNRYLGETGKNKQTSNIKNTVANLKRIIGLDYHHPDFEQESKHFTSKLVELDDKKTGAEVRFAGEKHVFSATQLAAMFIDKVKDTVKQDTKANITDVCIAVPPWYTEEQRYNIADAARIAGLNPVRIVNDVTAAGVSYGIFKTDLPEGEEKPRIVAFVDIGHSSYTCSIMAFKKGQLKVLGTACDKHFGGRDFDLAITEHFADEFKTKYKIDIRENPKAYNRILTAAEKLKKVLSANTNAPFSVESVMNDVDVSSQLSREELEELVKPLLERVTEPVTKALAQAKLSAEEVDFVEIIGGTTRIPTLKQSISEAFGKPLSTTLNQDEAIAKGAAFICAIHSPTLRVRPFKFEDIHPYSVSYSWDKQVEDEDHMEVFPAGSSFPSTKLITLNRTGDFSMAASYTDITQLPPNTPEQIANWEITGVQLPEGQDSVPVKLKLRCDPSGLHTIEEAYTIEDIEVEEPIPLPEDAPEDAEQEFKKVTKTVKKDDLTIVAHTFGLDAKKLNELIEKENEMLAQDKLVAETEDRKNTLEEYIYTLRGKLEEEYAPFASDAEKTKLQGMLNKAEEWLYDEGFDSIKAKYIAKYEELASLGNIIRGRYLAKEEEKKQAIRSKQEASQMAAMAEKLAAQRKAEAEKKEEKKDTEGDVDMD
binding [1]: binds
binding [2]: binds
binding [3]: binds
binding [4]: binds
binding [5]: binds
binding [6]: binds

B3: Mtw1 (endogenous, MIND kinetochore complex component) (protein, UniProt P39731 1-289)
chain: MSAPTMRSTSILTEHLGYPPISLVDDIINAVNEIMYKCTAAMEKYLLSKSKIGEEDYGEEIKSGVAKLESLLENSVDKNFDKLELYVLRNVLRIPEEYLDANVFRLENQKDLVIVDENELKKSEEKLREKVNDVELAFKKNEMLLKRVTKVKRLLFTIRGFKQKLNELLKCKDDVQLQKILESLKPIDDTMTLLTDSLRKLYVDSESTSSTEEVEALLQRLKTNGKQNNKDFRTRYIDIRTNNVLRKLGLLGDKEDEKQSAKPDARTQAGDIVSIDIEEPQLDLLDDVL
modifications: phosphorylation at Y86 (in the identified site of interaction)
binding [5]: binds

B5: Pcl7 (endogenous) (protein, UniProt P40186 1-285)
chain: MELSSPSKKTTTSPINIPGGNRDNLIIGPHSHSFKTDPFSSNNSSLLSKISTNPSLESPFSSKSLLDCSPVQAVKKSLESEAKTHSLDEETNEQTDVKILNIADFPTDELILMISALLNRIITANDETTDVSQQVSDETEDELLTPILAFYGKNVPEIAVVQYLERIQKYCPTTNDIFLSLLVYFDRISKNYGHSSERNGCAKQLFVMDSGNIHRLLITGVTICTKFLSDFFYSNSRYAKVGGISLQELNHLELQFLILCDFKLLVSVEEMQKYANLLYKFWNDQ
binding [5]: binds

Other lines, results leading:

binding [5]: binds
B2: Pim1 (endogenous, ATP-dependent yeast Lon protease) (enzyme, UniProt P36775 99-1133)
chain: KDDSTSQKKDEDVKIVPDEKDTDNDVEPTRDDEIVNKDQEGEASKNSRSSASGGGQSSSSRSDSGDGSSKQKPPKDVPEVYPQMLALPIARRPLFPGFYKAVVISDERVMKAIKEMLDRQQPYIGAFMLKNSEEDTDVITDKNDVYDVGVLAQITSAFPSKDEKTGTETMTALLYPHRRIKIDELFPPNEEKEKSKEQAKDTDTETTVVEDANNPEDQESTSPATPKLEDIVVERIPDSELQHHKRVEATEEESEELDDIQEGEDINPTEFLKNYNVSLVNVLNLEDEPFDRKSPVINALTSEILKVFKEISQLNTMFREQIATFSASIQSATTNIFEEPARLADFAAAVSAGEEDELQDILSSLNIEHRLEKSLLVLKKELMNAELQNKISKDVETKIQKRQREYYLMEQLKGIKRELGIDDGRDKLIDTYKERIKSLKLPDSVQKIFDDEITKLSTLETSMSEFGVIRNYLDWLTSIPWGKHSKEQYSIPRAKKILDEDHYGMVDVKDRILEFIAVGKLLGKVDGKIICFVGPPGVGKTSIGKSIARALNRKFFRFSVGGMTDVAEIKGHRRTYIGALPGRVVQALKKCQTQNPLILIDEIDKIGHGGIHGDPSAALLEVLDPEQNNSFLDNYLDIPIDLSKVLFVCTANSLETIPRPLLDRMEVIELTGYVAEDKVKIAEQYLVPSAKKSAGLENSHVDMTEDAITALMKYYCRESGVRNLKKHIEKIYRKAALQVVKKLSIEDSPTSSADSKPKESVSSEEKAENNAKSSSEKTKDNNSEKTSDDIEALKTSEKINVSISQKNLKDYVGPPVYTTDRLYETTPPGVVMGLAWTNMGGCSLYVESVLEQPLHNCKHPTFERTGQLGDVMKESSRLAYSFAKMYLAQKFPENRFFEKASIHLHCPEGATPKDGPSAGVTMATSFLSLALNKSIDPTVAMTGELTLTGKVLRIGGLREKAVAAKRSGAKTIIFPKDNLNDWEELPDNVKEGLEPLAADWYNDIFQKLFKDVNTKEGNSVWKAEFEILDAKKEKD
modifications: phosphorylation at S974 (on the Pim1 portion of the cross-linked peptide)

binding [5]: binds
B4: Ste11 (endogenous, MEK kinase) (enzyme, UniProt P23561 1-717)
chain: MEQTQTAEGTDLLIGDEKTNDLPFVQLFLEEIGCTQYLDSFIQCNLVTEEEIKYLDKDILIALGVNKIGDRLKILRKSKSFQRDKRIEQVNRLKNLMEKVSSLSTATLSMNSELIPEKHCVIFILNDGSAKKVNVNGCFNADSIKKRLIRRLPHELLATNSNGEVTKMVQDYDVFVLDYTKNVLHLLYDVELVTICHANDRVEKNRLIFVSKDQTPSDKAISTSKKLYLRTLSALSQVGPSSSNLLAQNKGISHNNAEGKLRIDNTEKDRIRQIFNQRPPSEFISTNLAGYFPHTDMKRLQKTMRESFRHSARLSIAQRRPLSAESNNIGDILLKHSNAVDMALLQGLDQTRLSSKLDTTKIPKLAHKRPEDNDAISNQLELLSVESGEEEDHDFFGEDSDIVSLPTKIATPKNWLKGACIGSGSFGSVYLGMNAHTGELMAVKQVEIKNNNIGVPTDNNKQANSDENNEQEEQQEKIEDVGAVSHPKTNQNIHRKMVDALQHEMNLLKELHHENIVTYYGASQEGGNLNIFLEYVPGGSVSSMLNNYGPFEESLITNFTRQILIGVAYLHKKNIIHRDIKGANILIDIKGCVKITDFGISKKLSPLNKKQNKRASLQGSVFWMSPEVVKQTATTAKADIWSTGCVVIEMFTGKHPFPDFSQMQAIFKIGTNTTPEIPSWATSEGKNFLRKAFELDYQYRPSALELLQHPWLDAHII
modifications: dimethylation on R305 (on the Ssa1-Ste11 cross-linked peptide)

binding [5]: binds
B6: Ura8 (endogenous) (protein, UniProt P38627 1-578)
chain: MKYVVVSGGVISGIGKGVLASSTGMLLKTLGLKVTSIKIDPYMNIDAGTMSPLEHGECFVLDDGGETDLDLGNYERYLGITLSRDHNITTGKIYSHVISRERRGDYLGKTVQIVPHLTNAIQDWIQRVSKIPVDDTGLEPDVCIIELGGTVGDIESAPFVEALRQFQFEVGRENFALIHVSLVPVIHGEQKTKPTQAAIKDLRSLGLIPDMIACRCSEELNRSTIDKIAMFCHVGPEQVVNVHDVNSTYHVPLLLLKQHMIDYLHSRLKLGEVPLTLEDKERGSQLLTNWENMTKNLDDSDDVVKIALVGKYTNLKDSYLSVTKSLEHASMKCRRQLEILWVEASNLEPETQEVDKNKFHDSWNKLSSADGILVPGGFGTRGIEGMILAAKWARESGVPFLGVCLGLQVAAIEFARNVIGRPNSSSTEFLDETLLAPEDQVVIYMPEIDKEHMGGTMRLGLRPTIFQPNSEWSNIRKLYGEVNEVHERHRHRYEINPKIVNDMESRGFIFVGKDETGQRCEIFELKGHPYYVGTQYHPEYTSKVLEPSRPFWGLVAAASGTLGEVIKDINLSEGNENE
